The results in this text go back to PMC5974162, “Characterization of Ferredoxin-Dependent Biliverdin Reductase PCYA1 Reveals the Dual Function in Retrograde Bilin Biosynthesis and Interaction With Light-Dependent Protochlorophyllide Oxidoreductase LPOR in Chlamydomonas reinhardtii” (Frontiers in Plant Science, 2018).

Assay [1] deals with FDBR (amino acids 175-451) in pGBKT7 (Chlamydomonas reinhardtii). Kind of assay: two-hybrid; Matchmaker Gold system; baits in pGBKT7 (Y2H Gold) mated with preys in pGADT7 (Y187); spotted on SD/-Trp-Leu, SD/-Trp-Leu-Ade-His and SD/-Trp-Leu with 80 μg/ml X-gal, 28°C, 2-3 days.
The target in assay [2] is cLUC-PCYA1 (full-length) (Chlamydomonas reinhardtii). Kind of assay: split reporter; split-luciferase complementation; cLUC and nLUC fusions co-expressed in Nicotiana benthamiana leaves by Agrobacterium infiltration; luminescence imaged 48 h after infiltration with 1 mM luciferin.

No constants are given. Whether binding was seen depends on the method and setting. Binding calls can cover weak binding; strength is not graded here. For some assays here: Binding seen in cells or lysates may run through a third protein. For some assays here: Sequences can lack the tags named with a protein.

B1: LPOR (amino acids 35-397) in pGADT7 (domain or fragment, UniProt Q39617 35-397)
chain: RVMPAPALAARSSVARTPLVVCAATATAPSPSLADKFKPNAIARVPATQQKQTAIITGASSGLGLNAAKALAATGEWHVVMACRDFLKAEQAAKKVGMPAGSYSILHLDLSSLESVRQFVQNFKASGRRLDALVCNAAVYLPTAKEPRFTADGFELSVGTNHLGHFLLTNLLLDDLKNAPNKQPRCIIVGSITGNTNTLAGNVPPKANLGDLSGLAAGVPAANPMMDGQEFNGAKAYKDSKVACMMTVRQMHQRFHDATGITFASLYPGCIAETGLFREHVPLFKTLFPPFQKYITKGYVSEEEAGRRLAAVISDPKLNKSGAYWSWSSTTGSFDNQVSEEVADDSKASKLWDISAKLVGLSA
Consider B1, for which the binding entry in assay [1] is listed as “binds”.

B2: nLUC-LPOR (domain or fragment, UniProt Q39617 35-397)
chain: RVMPAPALAARSSVARTPLVVCAATATAPSPSLADKFKPNAIARVPATQQKQTAIITGASSGLGLNAAKALAATGEWHVVMACRDFLKAEQAAKKVGMPAGSYSILHLDLSSLESVRQFVQNFKASGRRLDALVCNAAVYLPTAKEPRFTADGFELSVGTNHLGHFLLTNLLLDDLKNAPNKQPRCIIVGSITGNTNTLAGNVPPKANLGDLSGLAAGVPAANPMMDGQEFNGAKAYKDSKVACMMTVRQMHQRFHDATGITFASLYPGCIAETGLFREHVPLFKTLFPPFQKYITKGYVSEEEAGRRLAAVISDPKLNKSGAYWSWSSTTGSFDNQVSEEVADDSKASKLWDISAKLVGLSA
In the case of B2, the binding result in assay [2] is “binds”.

B3: CHLB (full length) in pGADT7 (protein, UniProt P36437 1-687)
chain: MKLAYWMYAGPAHIGVLRVSSSFKNVHAIMHAPLGDDYFNVMRSMLERERDFTPVTASIVDRHVLARGSQEKVVENITRKNKEETPDLILLTPTCTSSILQEDLHNFVESALAKPVQIDEHADHKVTQQSALSSVSPLLPLEENTLIVSELDKKLSPSSKLHINMPNICIPEGEGEGEQTKNSIFVKSATLTNLSEEELLNQEHHTKTRNHSDVILADVNHYRVNELQAADRTLEQIVRYYISQAQKQNCLNITKTAKPSVNIIGIFTLGFHNQHDCRELKRLFNDLGIQINEIIPEGGNVHNLKKLPQAWFNFVPYREIGLMTAMYLKSEFNMPYVAITPMGLIDTAACIRSICKIITTQLLNQTATVQEPSKFIYPKATSLEQTNILETSQKETILKDNPDSGNTLSTTVEEIETLFNKYIDQQTRFVSQAAWFSRSIDCQNLTGKKAVVFGDATHSAAMTKLLAREMGIKVSCAGTYCKHDADWFREQVSGFCDQVLITDDHTQVGDMIAQLEPAAIFGTQMERHVGKRLDIPCGVISAPVHIQNFPLGYRPFLGYEGTNQIADLVYNSFNLGMEDHLLQIFGGHDSENNSSIATHLNTNNAINLAPGYLPEGEGSSRTSNVVSTISSEKKAIVWSPEGLAELNKVPGFVRGKVKRNTEKYALQKNCSMITVEVMYAAKEALSA
With B3, the binding result in assay [1] is “no binding”.

B4: CHLN (full length) in pGADT7 (protein, UniProt P29683 1-545)
chain: MKPLKLKRLIMENNKSHATNLSLGGPFQGNCMPINQYFSKNQPNRGSSSSEKRSSLLPLWESKNAADGFSIVSHNVLLDGATTILNLNSFFECETGNYHTFCPISCVAWLYQKIEDSFFLVIGTKTCGYFLQNALGVMIFAEPRYAMAELEESDISAQLNDYKELKRLCLQIKQDRNPSVIVWIGTCTTEIIKMDLEGMAPRLETEIGIPIVVARANGLDYAFTQGEDTVLSAMALASLKKDVPFLVGNTGLTNNQLLLEKSTSSVNGTDGKELLKKSLVLFGSVPSTVTTQLTLELKKEGINVSGWLPSANYKDLPTFNKDTLVCGINPFLSRTATTLMRRSKCTLICAPFPIGPDGTRVWIEKICGAFGINPSLNPITGNTNLYDREQKIFNGLEDYLKLLRGKSVFFMGDNLLEISLARFLTRCGMIVYEIGIPYLDKRFQAAELALLEQTCKEMNVPMPRIVEKPDNYYQIRRIRELKPDLTITGMAHANPLEARGITTKWSVEFTFAQIHGFTNTREILELVTQPLRRNLMSNQSVNAIS
Regarding B4, the binding entry in assay [1] is “no binding”.

B5: CHLL (full length) in pGADT7 (protein, UniProt Q00469 1-293)
chain: MKLAVYGKGGIGKSTTSCNISIALRKRGKKVLQIGCDPKHDSTFTLTGFLIPTIIDTLSSKDYHYEDIWPEDVIYGGYGGVDCVEAGGPPAGAGCGGYVVGETVKLLKELNAFFEYDVILFDVLGDVVCGGFAAPLNYADYCIIVTDNGFDALFAANRIAASVREKARTHPLRLAGLIGNRTSKRDLIDKYVEACPMPVLEVLPLIEEIRISRVKGKTLFEMSNKNNMTSAHMDGSKGDNSTVGVSETPSEDYICNFYLNIADQLLTEPEGVIPRELADKELFTLLSDFYLKI
For the molecule B5, in assay [1], the binding entry is given as “no binding”.
